# US8853271B2, “Method for inhibiting activity and/or expression of matrix metalloproteinase, inhibiting phosphorylation of mitogen-activated protein kinase, and/or promoting expression of collagen using tormentic acid” (China Medical University, priority 2010, dated 2014)
# At least one structure is not confirmed: it was looked up by name or label, or the drawing left a doubt.
# Tested on: bacterial matrix metalloproteinase
# Assay: Decomposition test of gelatin (inhibition of matrix metalloproteinase activity)
# Format: biochemical
# Details: 500 μg/ml
# Experimental: In addition to collagen decomposing, matrix metalloproteinase (collagenase) has the effect of gelatin decomposing. The property of the fluorescence generation of decomposed gelatin and decomposed commercial substrates of collagenase (purchased from Calbiochem, la Jolla, […]) was used in this example to evaluate the inhibitory effect of tormentic acid on the matrix metalloproteinase.
# A 50 μl buffer solution (pH 7.8, contained 50 mM Tris-HCl, 10 mM calcium chloride, and 0.15 M sodium chloride), 30 μl sterile water, and 10 μl bacterial matrix metalloproteinase (0.1 mg/ml, Sigma) were added into an eppendorf tube, and then a 10 μl solution of tormentic acid ([…]) or doxycycline as the positive control was added into the eppendorf tube. The mixture was well mixed, and incubated at room temperature for 60 minutes.
# The mixture (30 μl) was drawn and dropped on a circular filter paper covering a gelatin culture medium, and then the filter paper along with the medium was placed into an incubator under 37° C. After incubating for 18 hours, the filter paper was removed. […] After the culture medium was photographed, the picture was analyzed by an image analysis software (AlphaDigiDoc 1201, purchased from Alpha Innotech Co., America) to calculate the inhibition rate of tormentic acid on the activity of gelatin decomposition of the matrix metalloproteinase.
structure (smiles),measurement,value
"C[C@H]1c2cccc(O)c2C(=O)C2=C(O)[C@]3(O)C(=O)C(C(N)=O)=C(O)[C@@H](N(C)C)[C@@H]3[C@@H](O)[C@@H]21 [doxycycline, reference compound]",Inhibition rate (%) of gelatin decomposing activity,55.0%
